PubChem BioAssay AID1224828 | NIAID – 2016
This is a random part of about 17,000 reagents tested. 762 of them (4.5%) were called active. 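Active calls include both raised and lowered p65 entry, mostly lowered; wells with fewer than 50 cells lack a z-score.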 Raw values are not corrected between plates. Unmarked entries are inactive.

- Assay: 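Find genes required for NF-kappaB p65 moving into the nucleus after LPS in mouse macrophages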 (primary screen)
- System: mouse RAW264.7 G9 macrophage reporter cells (GFP-p65, Tnf promoter-mCherry)
- Reagents: siRNA pool against mouse genes, 100 nM
- Duration: 2 days siRNA transfection, then 40 min LPS before fixation
- Conditions: LPS (Salmonella minnesota R595) at 10 ng/ml
- Measured: 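Imaged p65 nuclear translocation ratio, normalised to the plate median, converted to robust z-scores and averaged across two replicates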
- Reading the numbers: p65 translocation robust z-score: higher = more nuclear NF-kappaB p65 after LPS than the plate median; nuclear/cytoplasmic p65 ratio: higher = more nuclear NF-kappaB p65
- Active means: 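Active if robust z is above 3.3 (negative regulators) or below -1.56, the Tlr4 control median (positive regulators); activity score 50 or more; control wells not called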
- Calls: active = hit (p65 shift raised or lowered); inactive = no clear change

With Stac2 (SH3 and cysteine rich domain 2), what was measured?
p65 translocation robust z-score: -0.18; nuclear/cytoplasmic p65 ratio, rep 1: 1.59; nuclear/cytoplasmic p65 ratio, rep 2: 1.48; low cell count flag: enough cells to score

What did the screen give for Syt2 (synaptotagmin II)?
p65 translocation robust z-score: 0.47; nuclear/cytoplasmic p65 ratio, rep 1: 1.5; nuclear/cytoplasmic p65 ratio, rep 2: 1.24; low cell count flag: enough cells to score

How did the screen score Nup214 (nucleoporin 214)?
p65 translocation robust z-score: -0.24; nuclear/cytoplasmic p65 ratio, rep 1: 1.57; nuclear/cytoplasmic p65 ratio, rep 2: 1.58; low cell count flag: enough cells to score

With Maml2 (mastermind like transcriptional coactivator 2), what was measured?
p65 translocation robust z-score: 1.69; nuclear/cytoplasmic p65 ratio, rep 1: 1.43; nuclear/cytoplasmic p65 ratio, rep 2: 1.69; low cell count flag: enough cells to score

What did the screen give for Apoh (apolipoprotein H)?
p65 translocation robust z-score: -0.42; nuclear/cytoplasmic p65 ratio, rep 1: 1.55; nuclear/cytoplasmic p65 ratio, rep 2: 1.56; low cell count flag: enough cells to score

With Cdhr4 (cadherin-related family member 4), how do the results read?
p65 translocation robust z-score: 0.92; nuclear/cytoplasmic p65 ratio, rep 1: 1.74; nuclear/cytoplasmic p65 ratio, rep 2: 1.64; low cell count flag: enough cells to score

What did the screen give for Phf2 (PHD finger protein 2)?
p65 translocation robust z-score: 0.73; nuclear/cytoplasmic p65 ratio, rep 1: 1.57; nuclear/cytoplasmic p65 ratio, rep 2: 1.53; low cell count flag: enough cells to score

For Cd1d1 (CD1d1 antigen), what does the deposit list?
p65 translocation robust z-score: -0.47; nuclear/cytoplasmic p65 ratio, rep 1: 1.46; nuclear/cytoplasmic p65 ratio, rep 2: 1.32; low cell count flag: enough cells to score

For Pde6d (phosphodiesterase 6D, cGMP-specific, rod, delta), what does the deposit list?
p65 translocation robust z-score: -0.18; nuclear/cytoplasmic p65 ratio, rep 1: 1.38; nuclear/cytoplasmic p65 ratio, rep 2: 1.43; low cell count flag: enough cells to score

With Aqp7 (aquaporin 7), what was measured?
p65 translocation robust z-score: -1.35; nuclear/cytoplasmic p65 ratio, rep 1: 1.42; nuclear/cytoplasmic p65 ratio, rep 2: 1.42; low cell count flag: enough cells to score

With Sprr2g (small proline-rich protein 2G), what was measured?
p65 translocation robust z-score: 0.78; nuclear/cytoplasmic p65 ratio, rep 1: 1.6; nuclear/cytoplasmic p65 ratio, rep 2: 1.25; low cell count flag: enough cells to score

For Defb6 (defensin beta 6), what was measured?
p65 translocation robust z-score: -0.74; nuclear/cytoplasmic p65 ratio, rep 1: 1.37; nuclear/cytoplasmic p65 ratio, rep 2: 1.53; low cell count flag: enough cells to score

How did the screen score Ehbp1l1 (EH domain binding protein 1-like 1)?
p65 translocation robust z-score: 0.19; nuclear/cytoplasmic p65 ratio, rep 1: 1.74; nuclear/cytoplasmic p65 ratio, rep 2: 1.58; low cell count flag: enough cells to score

What is on record for Cltb (clathrin light chain B)?
p65 translocation robust z-score: -0.52; nuclear/cytoplasmic p65 ratio, rep 1: 1.42; nuclear/cytoplasmic p65 ratio, rep 2: 1.29; low cell count flag: enough cells to score

With Krtap26-1 (keratin associated protein 26-1), how do the results read?
nuclear/cytoplasmic p65 ratio, rep 1: 1.5; nuclear/cytoplasmic p65 ratio, rep 2: 1.41; low cell count flag: fewer than 50 cells per well; well left out of scoring

Which result is listed for Adipoq (adiponectin, C1Q and collagen domain containing)?
p65 translocation robust z-score: 1.63; nuclear/cytoplasmic p65 ratio, rep 1: 1.84; nuclear/cytoplasmic p65 ratio, rep 2: 1.95; low cell count flag: enough cells to score

How did the screen score Sfxn3 (sideroflexin 3)?
nuclear/cytoplasmic p65 ratio, rep 1: 1.48; nuclear/cytoplasmic p65 ratio, rep 2: 1.09; low cell count flag: fewer than 50 cells per well; well left out of scoring

For Or1l4 (olfactory receptor family 1 subfamily L member 4), what was measured?
p65 translocation robust z-score: 0.18; nuclear/cytoplasmic p65 ratio, rep 1: 1.68; nuclear/cytoplasmic p65 ratio, rep 2: 1.41; low cell count flag: enough cells to score

What is on record for Arl6ip5 (ADP-ribosylation factor-like 6 interacting protein 5)?
p65 translocation robust z-score: 0.66; nuclear/cytoplasmic p65 ratio, rep 1: 1.45; nuclear/cytoplasmic p65 ratio, rep 2: 1.68; low cell count flag: enough cells to score

With Nxph1 (neurexophilin 1), what does the deposit list?
p65 translocation robust z-score: -1.51; nuclear/cytoplasmic p65 ratio, rep 1: 1.46; nuclear/cytoplasmic p65 ratio, rep 2: 1.33; low cell count flag: enough cells to score

What is on record for Kri1 (KRI1 homolog)?
p65 translocation robust z-score: 0.83; nuclear/cytoplasmic p65 ratio, rep 1: 1.79; nuclear/cytoplasmic p65 ratio, rep 2: 1.88; low cell count flag: enough cells to score

Part of the list above in another layout:
gene	p65 translocation robust z-score	nuclear/cytoplasmic p65 ratio, rep 1	nuclear/cytoplasmic p65 ratio, rep 2	low cell count flag
Nup214 (nucleoporin 214)	-0.24	1.57	1.58	enough cells to score
Maml2 (mastermind like transcriptional coactivator 2)	1.69	1.43	1.69	enough cells to score
Apoh (apolipoprotein H)	-0.42	1.55	1.56	enough cells to score
